# Source: paper PMC7819943, “Rice protein-binding microarrays: a tool to detect cis-acting elements near promoter regions in rice”
# Amino acid sequences for entries named in this document (tags omitted).
# UniProt Q0JBA9, entry or part of it: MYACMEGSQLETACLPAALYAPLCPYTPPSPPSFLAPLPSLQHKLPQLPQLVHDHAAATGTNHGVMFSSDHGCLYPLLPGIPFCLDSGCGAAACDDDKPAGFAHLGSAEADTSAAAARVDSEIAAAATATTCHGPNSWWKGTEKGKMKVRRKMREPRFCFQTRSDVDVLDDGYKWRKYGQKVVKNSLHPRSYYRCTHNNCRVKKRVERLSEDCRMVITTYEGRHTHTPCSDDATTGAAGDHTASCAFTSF
# The list shows a part of the results.
# Target: OsWRKY34 (Oryza sativa, UniProt Q0JBA9 1-250)
# Assay: protein-binding microarray (RPBM); PBS, 2% BSA, 51.3 ng/ul salmon testes DNA, 50 uM zinc acetate, 200 nM TF, 25 C, 1 h; high values mean tight binding
# Conditions: protein: recombinant; tags: N-terminal polyhistidine and DsRed monomer fusion (pET32a); label: CyDye5-dUTP incorporated in the synthesized complementary strand; 3' TTTTT single-stranded linker to array surface; dsDNA, one strand shown
# Summary of the method: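 In PBS with 2% BSA, salmon testes DNA and 50 µM zinc acetate, 200 nM protein was incubated on a custom Agilent array at 25 °C for 1 h and then washed off. The array had been made double-stranded by primer extension with Cy5-dUTP and blocked with 2% BSA. The proteins were transcription factors fused N-terminally to polyhistidine and DsRed, expressed in E. coli BL21-CodonPlus and purified on Ni–NTA. The binding signal is per-feature fluorescence intensity (arbitrary units) from an Axon 4000B scanner.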
row,Sequence,binding signal
1,GAGTTGGTAGTTGGCGGTTTCGGATAAGGATCCGATATTTCGGAGTCACCTAGTGCAG,9610 fluorescence intensity (a.u.)
2,CCAAGCTCCACTATCCGGCTGCTGTCATTGGCTTCTCGGCCGGAGTCACCTAGTGCAG,11800 fluorescence intensity (a.u.)
3,GCCGGAGGCCGGTTCCACTTGCACCAAACCGTACCAAACCCGGAGTCACCTAGTGCAG,8080 fluorescence intensity (a.u.)
4,GTGATGAATTATTTTTGCCTTTCTTTTCTTTCTCCCTATCCGGAGTCACCTAGTGCAG,9710 fluorescence intensity (a.u.)
5,GTGACTTTTGCCAACTAATTCTCCCGTACGCCCGAGATCCCGGAGTCACCTAGTGCAG,11700 fluorescence intensity (a.u.)
6,TCTAAATTGTATTTCTATATGGACTCTGTTTTTCTTTTTCCGGAGTCACCTAGTGCAG,8520 fluorescence intensity (a.u.)
7,GTGTCATTATCCCGTGTGTACTCCACTTGTGCCGAATATGCGGAGTCACCTAGTGCAG,8270 fluorescence intensity (a.u.)
8,TTAGTTGAAGATCTCTTCGTTCTCAGTGTGTTCTTTTGGGCGGAGTCACCTAGTGCAG,11200 fluorescence intensity (a.u.)
9,CTTCAAACTTTTAATTTTTCCGTCACATCGAACTTTTCTACGGAGTCACCTAGTGCAG,9760 fluorescence intensity (a.u.)
10,CGTCGTTTAGTCTCCTCCCTATATATATTATTGGTATTGTCGGAGTCACCTAGTGCAG,8040 fluorescence intensity (a.u.)
11,TGTGGCTGGATTTGTACTTGGATTGGATCTTCTCTTCAGTCGGAGTCACCTAGTGCAG,11800 fluorescence intensity (a.u.)
12,CCTCCCGCCGCGCCTAAAACCTCGACACCTCACCCACCTCCGGAGTCACCTAGTGCAG,9520 fluorescence intensity (a.u.)
13,TCTGCGCCTCAAATTTCCTTTCCTATGCCTGCAGCCTGTACGGAGTCACCTAGTGCAG,8340 fluorescence intensity (a.u.)
14,TGGGAGGAGGGAGGGAGGAGGAGGGCGGAGATAGGTGGTGCGGAGTCACCTAGTGCAG,11400 fluorescence intensity (a.u.)
15,AGTAGTACGTGCGGTTATGGGTTGGGCTGCTCGTTGGCCACGGAGTCACCTAGTGCAG,13700 fluorescence intensity (a.u.)
16,TTCGAGCGCCCTTCTCGTTCGGTTCTTGCCTCTCCACCGCCGGAGTCACCTAGTGCAG,9090 fluorescence intensity (a.u.)
17,ATTGGATCGATTTGTTCGTTGTTTTCATGGCGTTAATCTCCGGAGTCACCTAGTGCAG,10200 fluorescence intensity (a.u.)
18,TGTCCGCCACGCTCTCGCCATCTGCCTGTACCACTAATCTCGGAGTCACCTAGTGCAG,22500 fluorescence intensity (a.u.)
19,GCCGCTCTCATCTCTCTCGCTCTCTCCTGCCCGCCGCCTGCGGAGTCACCTAGTGCAG,11700 fluorescence intensity (a.u.)
20,AATGTTTTTATTCGGGGTGTTATCCTTCTACCCATTAGGACGGAGTCACCTAGTGCAG,8250 fluorescence intensity (a.u.)
21,ACTTCTCCTCGCCTCATCGCGACCTCTCCATCTCGCTCTCCGGAGTCACCTAGTGCAG,8860 fluorescence intensity (a.u.)
22,TCATTATGGTGTTTCTTAATTGCTTTTTTCTTTTTATTATCGGAGTCACCTAGTGCAG,8300 fluorescence intensity (a.u.)
23,CACTCTCTCTCTCTCTCTCTCTCTCTCTCTCTCTCTCCTACGGAGTCACCTAGTGCAG,9390 fluorescence intensity (a.u.)
24,ATGTACGCCAACTTAATCTTCATCTTCATCAGTTTCGCCTCGGAGTCACCTAGTGCAG,10600 fluorescence intensity (a.u.)
25,TCATTGCTTTACACCATTGTAATCCTTTGTCATTTACTTTCGGAGTCACCTAGTGCAG,10400 fluorescence intensity (a.u.)
26,TGCTAGCCTTTTCATATTGAACTTCCACCTCTCCATGCATCGGAGTCACCTAGTGCAG,10100 fluorescence intensity (a.u.)
27,GCCAAGACGCCCAAAGCACACACTCTCTCTCGCTGTCTTTCGGAGTCACCTAGTGCAG,8490 fluorescence intensity (a.u.)

# Reprinted from the entries so far (5 entries):
row,Sequence,binding signal
14,TGGGAGGAGGGAGGGAGGAGGAGGGCGGAGATAGGTGGTGCGGAGTCACCTAGTGCAG,11400 fluorescence intensity (a.u.)
15,AGTAGTACGTGCGGTTATGGGTTGGGCTGCTCGTTGGCCACGGAGTCACCTAGTGCAG,13700 fluorescence intensity (a.u.)
16,TTCGAGCGCCCTTCTCGTTCGGTTCTTGCCTCTCCACCGCCGGAGTCACCTAGTGCAG,9090 fluorescence intensity (a.u.)
17,ATTGGATCGATTTGTTCGTTGTTTTCATGGCGTTAATCTCCGGAGTCACCTAGTGCAG,10200 fluorescence intensity (a.u.)
18,TGTCCGCCACGCTCTCGCCATCTGCCTGTACCACTAATCTCGGAGTCACCTAGTGCAG,22500 fluorescence intensity (a.u.)

# The listing continues.

row,Sequence,binding signal
1,AACCGCCGACGACGCGCCCACCTCCTCTTCGCCGCCTCCGCGGAGTCACCTAGTGCAG,9790 fluorescence intensity (a.u.)
2,GGGCTTATTTTTTTTTTTTAACTTTGTTATGCTCTAGAAACGGAGTCACCTAGTGCAG,20100 fluorescence intensity (a.u.)
3,TGAACACGTACAGGTCTGTACCTTTTGCCGGTACTTTGCACGGAGTCACCTAGTGCAG,8960 fluorescence intensity (a.u.)
4,TCGCTTCTTGTCTTCGCAACGTATCCTAGTTAACCCAAGTCGGAGTCACCTAGTGCAG,9620 fluorescence intensity (a.u.)
5,CACCTCAGCATTCATCCCGCTTCCTCTGCTCTCTCTGGAACGGAGTCACCTAGTGCAG,11100 fluorescence intensity (a.u.)
6,AACCCTCATCTACTTCTGGCCCTCTAAGAGTTCTCCACTACGGAGTCACCTAGTGCAG,8400 fluorescence intensity (a.u.)
7,TCACACCTCCCAATCTCGTCCACAGCATACACACGTCTACCGGAGTCACCTAGTGCAG,9320 fluorescence intensity (a.u.)
8,GTCGTCGTCTTCTTCCGCCGCGCGGCCCGGCCGCTGCCGGCGGAGTCACCTAGTGCAG,8740 fluorescence intensity (a.u.)
9,ACATCAAAACTTTTCTACACACACAAATTTCCAACTTTTCCGGAGTCACCTAGTGCAG,9930 fluorescence intensity (a.u.)
10,CATTGTCTTGCACTTTCCTAATTTACAACTGCTGCTAAAACGGAGTCACCTAGTGCAG,8450 fluorescence intensity (a.u.)
11,AATCAGCATTTTAACTAACTTTTGCGCCGACATTTTTTTTCGGAGTCACCTAGTGCAG,9600 fluorescence intensity (a.u.)
12,CAATCACTCCGGCTCATCTCCCCGCAAGCATCTCCGTCCTCGGAGTCACCTAGTGCAG,8560 fluorescence intensity (a.u.)
13,TTCTTGCGTTGTTTTACCTGCGTCTTGTTCTTCTTGGGAGCGGAGTCACCTAGTGCAG,9090 fluorescence intensity (a.u.)
14,CCATCTCCATCCCCGACCACCACTTCTTCTCCGGCGAGCTCGGAGTCACCTAGTGCAG,8780 fluorescence intensity (a.u.)
15,GGCGCCGGCGCTAGCGCCCACGTCGGGGTTGGGGTTGGGGCGGAGTCACCTAGTGCAG,16600 fluorescence intensity (a.u.)
16,TATTCCCACGATGTTGTCACTCTTCCTCGCGCGTCCACAGCGGAGTCACCTAGTGCAG,8190 fluorescence intensity (a.u.)
17,CGTTGCGCACGTACAGCTCACGCTCAAGTCGTACACATTACGGAGTCACCTAGTGCAG,9380 fluorescence intensity (a.u.)
18,GATGGAACTCCTTTTGTAACTTTCCAACTACGAGTACGAGCGGAGTCACCTAGTGCAG,8480 fluorescence intensity (a.u.)
19,TATTTGATTTATATATAATGAAACATCGTCAGTTATTTTTCGGAGTCACCTAGTGCAG,8060 fluorescence intensity (a.u.)
20,TTGCTTTGTGGGAATTGGGGAGTTTTTTGTGATACGGTGGCGGAGTCACCTAGTGCAG,10300 fluorescence intensity (a.u.)
21,CTGCTCCGCCGACCACCGTCAGGTCGCGACGCCGCCGATGCGGAGTCACCTAGTGCAG,8410 fluorescence intensity (a.u.)
22,TTCTTCTTCTTCCTCCTCCTTCGCCGCCGCCCACCGCGCCCGGAGTCACCTAGTGCAG,8990 fluorescence intensity (a.u.)
23,CTCTCGGCGTTCTCAGCTGCAGCCGCCGGCGGCGAACCCGCGGAGTCACCTAGTGCAG,11700 fluorescence intensity (a.u.)
24,TTTTTAAAAAAAAAATTGGTAGGACCCGTCCATCTCTTCTCGGAGTCACCTAGTGCAG,8210 fluorescence intensity (a.u.)
25,GGGTCTGAGAGGGGAGGAGAGGTGTCGCTATCGGAGAAGACGGAGTCACCTAGTGCAG,8710 fluorescence intensity (a.u.)
26,TAGTGTGTACTCTTCCCTTTGGCACGTACTAGTCGATTACCGGAGTCACCTAGTGCAG,13000 fluorescence intensity (a.u.)
27,TACTAGTCCACACATAAGCATTATTATCTTTTGTTAAATACGGAGTCACCTAGTGCAG,9200 fluorescence intensity (a.u.)
